Here are results for eight substances from article PMC8730729.

Protein sequences, listed by entry. Tags and fused reporters are not part of them. Residues count along the entry.
UniProt Q86V87: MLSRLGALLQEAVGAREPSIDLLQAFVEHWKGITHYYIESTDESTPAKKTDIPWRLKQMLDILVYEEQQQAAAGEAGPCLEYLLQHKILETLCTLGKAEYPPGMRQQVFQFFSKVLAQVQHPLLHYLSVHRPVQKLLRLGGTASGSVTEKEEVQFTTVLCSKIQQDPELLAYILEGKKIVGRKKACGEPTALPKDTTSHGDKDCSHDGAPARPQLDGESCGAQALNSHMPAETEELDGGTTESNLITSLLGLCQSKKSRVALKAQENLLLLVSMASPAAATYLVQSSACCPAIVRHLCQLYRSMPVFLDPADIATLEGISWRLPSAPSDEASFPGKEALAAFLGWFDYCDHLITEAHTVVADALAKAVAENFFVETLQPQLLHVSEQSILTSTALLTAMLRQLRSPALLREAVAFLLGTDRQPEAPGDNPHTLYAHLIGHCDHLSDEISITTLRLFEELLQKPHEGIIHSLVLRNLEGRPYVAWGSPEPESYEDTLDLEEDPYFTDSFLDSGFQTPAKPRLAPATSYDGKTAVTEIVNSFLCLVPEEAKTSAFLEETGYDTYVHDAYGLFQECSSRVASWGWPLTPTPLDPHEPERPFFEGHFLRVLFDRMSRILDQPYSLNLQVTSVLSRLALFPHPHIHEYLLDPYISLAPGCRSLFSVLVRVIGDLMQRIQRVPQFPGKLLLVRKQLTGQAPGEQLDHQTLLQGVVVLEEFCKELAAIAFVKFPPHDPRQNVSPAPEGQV
UniProt Q15643: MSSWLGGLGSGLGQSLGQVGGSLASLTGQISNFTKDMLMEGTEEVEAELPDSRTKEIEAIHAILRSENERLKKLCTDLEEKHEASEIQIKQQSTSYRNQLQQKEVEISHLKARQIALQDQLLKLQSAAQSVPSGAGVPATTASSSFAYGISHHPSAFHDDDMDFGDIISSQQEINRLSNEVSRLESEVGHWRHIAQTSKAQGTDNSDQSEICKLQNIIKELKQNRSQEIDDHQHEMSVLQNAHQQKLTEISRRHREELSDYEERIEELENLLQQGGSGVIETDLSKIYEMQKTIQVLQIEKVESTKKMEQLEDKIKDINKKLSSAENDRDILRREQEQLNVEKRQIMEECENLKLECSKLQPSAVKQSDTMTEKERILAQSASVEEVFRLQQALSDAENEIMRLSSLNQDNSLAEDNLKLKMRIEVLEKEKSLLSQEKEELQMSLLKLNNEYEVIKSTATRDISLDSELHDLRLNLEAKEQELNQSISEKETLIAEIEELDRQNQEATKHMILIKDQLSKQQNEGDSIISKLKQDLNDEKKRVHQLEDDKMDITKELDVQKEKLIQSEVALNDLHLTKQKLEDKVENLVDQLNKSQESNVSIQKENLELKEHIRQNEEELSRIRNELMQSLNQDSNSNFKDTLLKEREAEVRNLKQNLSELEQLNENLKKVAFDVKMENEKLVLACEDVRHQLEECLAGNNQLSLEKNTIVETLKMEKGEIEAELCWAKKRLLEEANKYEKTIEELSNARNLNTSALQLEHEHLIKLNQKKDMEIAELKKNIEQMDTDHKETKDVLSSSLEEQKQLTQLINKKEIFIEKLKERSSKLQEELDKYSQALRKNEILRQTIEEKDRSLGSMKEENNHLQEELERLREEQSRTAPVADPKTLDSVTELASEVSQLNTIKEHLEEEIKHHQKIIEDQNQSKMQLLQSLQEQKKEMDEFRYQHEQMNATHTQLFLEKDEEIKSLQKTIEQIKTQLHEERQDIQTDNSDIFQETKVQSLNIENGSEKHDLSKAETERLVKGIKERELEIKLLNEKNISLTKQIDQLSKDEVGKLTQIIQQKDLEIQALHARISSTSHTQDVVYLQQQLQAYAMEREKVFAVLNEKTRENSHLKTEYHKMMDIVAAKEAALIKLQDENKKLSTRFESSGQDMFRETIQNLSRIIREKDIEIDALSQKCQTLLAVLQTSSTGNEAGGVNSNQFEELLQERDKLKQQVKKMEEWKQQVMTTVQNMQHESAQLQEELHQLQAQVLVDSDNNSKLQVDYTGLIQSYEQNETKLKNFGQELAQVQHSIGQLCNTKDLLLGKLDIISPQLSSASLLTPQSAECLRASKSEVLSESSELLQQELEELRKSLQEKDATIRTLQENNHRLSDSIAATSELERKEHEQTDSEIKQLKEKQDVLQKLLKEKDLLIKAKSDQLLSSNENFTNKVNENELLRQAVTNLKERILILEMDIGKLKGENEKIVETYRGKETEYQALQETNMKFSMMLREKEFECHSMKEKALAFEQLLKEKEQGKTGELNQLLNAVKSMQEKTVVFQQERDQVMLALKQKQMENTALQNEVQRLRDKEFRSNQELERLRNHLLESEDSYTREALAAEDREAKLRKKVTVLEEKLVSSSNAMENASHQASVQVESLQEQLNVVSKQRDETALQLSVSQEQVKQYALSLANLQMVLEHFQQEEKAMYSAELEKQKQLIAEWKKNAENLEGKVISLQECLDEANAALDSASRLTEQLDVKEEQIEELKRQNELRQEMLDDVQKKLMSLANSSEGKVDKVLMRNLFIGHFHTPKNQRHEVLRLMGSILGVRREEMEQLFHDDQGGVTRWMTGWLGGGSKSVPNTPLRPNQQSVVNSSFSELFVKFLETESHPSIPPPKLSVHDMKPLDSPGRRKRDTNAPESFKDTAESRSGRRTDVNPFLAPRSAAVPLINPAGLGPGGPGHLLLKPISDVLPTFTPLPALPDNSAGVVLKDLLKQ
UniProt P38646, residues 47-679: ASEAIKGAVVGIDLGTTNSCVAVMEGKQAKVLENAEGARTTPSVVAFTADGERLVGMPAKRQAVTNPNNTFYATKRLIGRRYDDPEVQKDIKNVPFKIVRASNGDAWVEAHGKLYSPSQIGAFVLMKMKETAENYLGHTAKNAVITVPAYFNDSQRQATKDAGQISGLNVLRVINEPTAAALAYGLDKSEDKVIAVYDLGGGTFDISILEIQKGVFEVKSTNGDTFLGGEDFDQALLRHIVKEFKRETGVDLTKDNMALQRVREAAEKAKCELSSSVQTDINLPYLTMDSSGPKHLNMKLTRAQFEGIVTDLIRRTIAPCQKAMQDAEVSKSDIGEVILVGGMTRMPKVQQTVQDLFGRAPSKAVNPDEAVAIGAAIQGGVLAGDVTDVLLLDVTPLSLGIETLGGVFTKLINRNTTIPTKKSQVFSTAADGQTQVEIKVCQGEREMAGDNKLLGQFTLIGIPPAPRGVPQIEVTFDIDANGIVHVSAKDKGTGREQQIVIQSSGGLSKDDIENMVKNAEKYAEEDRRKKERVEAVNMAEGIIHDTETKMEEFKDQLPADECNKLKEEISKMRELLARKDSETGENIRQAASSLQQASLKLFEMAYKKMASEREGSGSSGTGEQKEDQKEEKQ
UniProt O75396: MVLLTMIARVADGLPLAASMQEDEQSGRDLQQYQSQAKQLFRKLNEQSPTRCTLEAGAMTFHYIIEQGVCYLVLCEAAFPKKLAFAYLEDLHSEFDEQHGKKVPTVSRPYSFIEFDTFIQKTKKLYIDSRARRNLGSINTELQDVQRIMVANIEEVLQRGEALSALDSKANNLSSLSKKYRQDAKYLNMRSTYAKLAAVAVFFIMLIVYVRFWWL
UniProt Q658Y4: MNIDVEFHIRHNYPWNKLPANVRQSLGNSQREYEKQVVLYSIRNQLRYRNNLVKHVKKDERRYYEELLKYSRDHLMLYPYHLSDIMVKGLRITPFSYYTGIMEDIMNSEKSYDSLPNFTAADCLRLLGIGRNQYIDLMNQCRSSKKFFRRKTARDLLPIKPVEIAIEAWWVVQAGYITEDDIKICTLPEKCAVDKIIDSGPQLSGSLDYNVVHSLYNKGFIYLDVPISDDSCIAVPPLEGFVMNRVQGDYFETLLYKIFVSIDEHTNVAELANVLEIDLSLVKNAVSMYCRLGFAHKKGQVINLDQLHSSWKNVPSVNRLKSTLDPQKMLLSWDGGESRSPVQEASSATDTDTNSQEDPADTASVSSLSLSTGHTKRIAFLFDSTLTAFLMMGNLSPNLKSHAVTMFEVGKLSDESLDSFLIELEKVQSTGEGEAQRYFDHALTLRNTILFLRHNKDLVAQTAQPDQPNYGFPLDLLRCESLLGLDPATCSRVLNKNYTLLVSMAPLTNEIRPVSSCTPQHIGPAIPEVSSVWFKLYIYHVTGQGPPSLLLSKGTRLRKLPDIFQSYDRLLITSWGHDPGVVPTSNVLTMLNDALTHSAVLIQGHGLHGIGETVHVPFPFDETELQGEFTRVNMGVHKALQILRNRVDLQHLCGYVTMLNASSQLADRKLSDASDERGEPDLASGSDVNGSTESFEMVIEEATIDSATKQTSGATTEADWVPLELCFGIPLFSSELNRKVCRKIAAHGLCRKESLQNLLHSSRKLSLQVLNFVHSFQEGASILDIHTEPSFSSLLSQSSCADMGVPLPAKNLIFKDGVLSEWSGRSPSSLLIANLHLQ
UniProt Q9NUY8: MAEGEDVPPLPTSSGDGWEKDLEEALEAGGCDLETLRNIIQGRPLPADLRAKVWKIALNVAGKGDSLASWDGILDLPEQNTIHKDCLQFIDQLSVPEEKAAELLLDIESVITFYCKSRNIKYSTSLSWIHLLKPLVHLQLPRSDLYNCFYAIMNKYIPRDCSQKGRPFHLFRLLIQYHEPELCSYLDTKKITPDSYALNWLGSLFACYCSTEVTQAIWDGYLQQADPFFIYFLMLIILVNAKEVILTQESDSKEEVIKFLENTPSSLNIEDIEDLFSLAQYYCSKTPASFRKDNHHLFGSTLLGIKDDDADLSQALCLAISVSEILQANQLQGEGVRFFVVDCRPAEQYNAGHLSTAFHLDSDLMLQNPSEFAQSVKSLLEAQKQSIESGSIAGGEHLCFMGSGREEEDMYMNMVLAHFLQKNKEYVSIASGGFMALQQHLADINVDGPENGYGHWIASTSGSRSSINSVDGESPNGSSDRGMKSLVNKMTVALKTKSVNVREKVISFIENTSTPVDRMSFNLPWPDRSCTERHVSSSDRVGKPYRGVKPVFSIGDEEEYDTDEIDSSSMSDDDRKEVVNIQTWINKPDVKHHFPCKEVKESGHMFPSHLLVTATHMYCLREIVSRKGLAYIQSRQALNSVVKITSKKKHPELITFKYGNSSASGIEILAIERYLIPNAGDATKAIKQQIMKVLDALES
UniProt O00429: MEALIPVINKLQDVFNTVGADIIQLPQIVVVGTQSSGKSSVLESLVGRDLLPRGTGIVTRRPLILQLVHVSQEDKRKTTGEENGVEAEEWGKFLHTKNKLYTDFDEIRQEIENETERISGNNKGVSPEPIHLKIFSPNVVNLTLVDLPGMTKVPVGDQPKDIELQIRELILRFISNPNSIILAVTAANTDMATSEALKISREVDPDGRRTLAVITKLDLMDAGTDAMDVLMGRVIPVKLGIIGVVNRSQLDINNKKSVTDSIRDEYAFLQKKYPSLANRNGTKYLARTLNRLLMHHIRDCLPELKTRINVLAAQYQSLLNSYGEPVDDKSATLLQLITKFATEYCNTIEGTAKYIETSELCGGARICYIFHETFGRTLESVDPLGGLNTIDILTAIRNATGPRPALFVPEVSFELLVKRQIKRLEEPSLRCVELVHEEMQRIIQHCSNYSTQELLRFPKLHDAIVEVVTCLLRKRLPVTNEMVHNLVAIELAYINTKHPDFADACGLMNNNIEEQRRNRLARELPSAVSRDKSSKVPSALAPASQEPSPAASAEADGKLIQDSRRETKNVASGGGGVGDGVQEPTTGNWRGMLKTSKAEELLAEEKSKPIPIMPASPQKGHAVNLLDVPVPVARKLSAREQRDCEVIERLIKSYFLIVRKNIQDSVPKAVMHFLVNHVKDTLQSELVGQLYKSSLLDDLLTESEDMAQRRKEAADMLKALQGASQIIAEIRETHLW

Holding throughout (assay): proximity labelling; BioID2 fused to the carboxy terminus of the bait in stable doxycycline-inducible 293T lines; 50 µM biotin 16 hr; RIPA lysis, streptavidin beads, on-bead digestion, MS; hits ≥threefold over cytoplasmic BioID2 control or absent from it, p < 0.05, three of four replicates
Experiment [1] concerns the target FHIP2A tagged at the carboxy terminus with BioID2 and 3xFLAG (human) (UniProt Q5W0V3).
Experiment [2] has as its target FHIP2B tagged at the carboxy terminus with BioID2 and 3xFLAG (human) (UniProt Q86V87).
Experiment [3] addresses FHIP1A tagged at the carboxy terminus with BioID2 and 3xFLAG (human) (UniProt Q05DH4).

Results are given in words; binding and its absence hold for the method and conditions named. In cells and extracts the contact can be indirect. Here binding means that the protein was enriched with, or labelled near, the bait; the list need not be complete. For part of these data: Sequences can lack the tags named with a protein.

Regarding “GMAP210, endogenous in 293T cells (from UniProt Q15643 1-1979)”, in experiment [1], the binding result is “binds”.

For the substance “GRP75, endogenous in 293T cells (from UniProt P38646 47-679)”, in experiment [2], the binding entry is “binds”.

Regarding “Hook1, endogenous in 293T cells (from UniProt Q9UJC3 1-728)”, the binding entry in experiment [3] and in experiment [1] was “binds” throughout.

Take “GOLGA4, endogenous in 293T cells (from UniProt Q13439 1-2230)”: the binding result in experiment [1] and in experiment [2] was “binds” throughout.

Regarding “SEC22B, endogenous in 293T cells (from UniProt O75396 1-215)”, the binding entry in experiment [1] was “binds”.

“FAM91A1, endogenous in 293T cells (from UniProt Q658Y4 1-838)”: the binding result in experiment [1] and in experiment [2] was “binds” in each case.

“TBC1D23, endogenous in 293T cells (from UniProt Q9NUY8 1-699)”: the binding result in experiment [1] and in experiment [2] was “binds” throughout.

Turning to “DRP1, endogenous in 293T cells (from UniProt O00429 1-736)”, the binding result in experiment [2] is recorded as “binds”.
